Experimental data reported in the supplement of paper PMC6418307.
Single values of this set are uncertain.

System: primary mouse cortical neurons
Experiment: cell health score (luciferase spike-in reads / total reads per well) (fraction); higher = fewer cellular reads, worse cell health / toxicity
Conditions: treatment time 24 h
[1] = 0.01 µM, sex of neuron culture: Female
[2] = 0.01 µM, sex of neuron culture: Male
[3] = 0.1 µM, sex of neuron culture: Female
[4] = 0.1 µM, sex of neuron culture: Male
[5] = 1 µM, sex of neuron culture: Female
[6] = 1 µM, sex of neuron culture: Male
[7] = 10 µM, sex of neuron culture: Female
[8] = 10 µM, sex of neuron culture: Male

Compound | cell health score [1] | cell health score [2] | cell health score [3] | cell health score [4] | cell health score [5] | cell health score [6] | cell health score [7] | cell health score [8]
COc1c(N2C[C@@H]3CCCN[C@@H]3C2)c(F)cc2c(=O)c(C(=O)O)cn(C3CC3)c12 [Moxifloxacin] | 0.000443 | 0.000859 | 0.000635 | 0.000707 | 0.000968 | 0.000806 | 0.00114 | 0.000591
CSC(=O)c1c(C(F)F)nc(C(F)(F)F)c(C(=O)SC)c1CC(C)C [Dithiopyr] | 0.000515 | 0.00109 | 0.000591 | 0.00105 | 0.00195 | 0.000474 | 0.00172 | 0.0012
COP(=O)(OC)O/C(C)=C/C(=O)N(C)C [Dicrotophos] | 0.00064 | 0.000741 | 0.00104 | 0.000629 | 0.000986 | 0.000625 | 0.00103 | 0.000881
OC[C@H]1O[C@@H](n2cnc3c(NC4CCCC4)ncnc32)[C@H](O)[C@@H]1O [N6-Cyclopentyl adenosine] | 0.000527 | 0.000739 | 0.00139 | 0.000773 | 0.000759 | 0.000973 | 0.00107 | 0.00109
COc1nc(NC(C)C)nc(NC(C)C)n1 [Prometon] | 0.000735 | 0.000978 | 0.000563 | 0.000759 | 0.000675 | 0.000515 | 0.00102 | 0.000518
C=CC1(C)OC(=O)N(c2cc(Cl)cc(Cl)c2)C1=O (centres undefined) [Vinclozolin] | 0.000557 | 0.000782 | 0.000859 | 0.000771 | 0.000849 | 0.000735 | 0.00125 | 0.000581
CC1(C(=O)Nc2ccc(O)c(Cl)c2Cl)CCCCC1 [Fenhexamid] | 0.000453 | 0.000898 | 0.000832 | 0.000909 | 0.00116 | 0.000813 | 0.000981 | 0.000589
COc1ccc(C(=CC(=O)N2CCOCC2)c2ccc(Cl)cc2)cc1OC [Dimethomorph] | 0.000583 | 0.00121 | 0.000707 | 0.000947 | 0.000631 | 0.000487 | 0.000885 | 0.000387
CCC(=O)Nc1ccc(Cl)c(Cl)c1 [Propanil] | 0.000577 | 0.0011 | 0.00105 | 0.001 | 0.000961 | 0.000549 | 0.00133 | 0.000987
COc1ccc(-c2ccc(=N)n(CCCC(=O)O)n2)cc1 | 0.00079 | 0.000835 | 0.000786 | 0.000953 | 0.00068 | 0.000622 | 0.000937 | 0.000496
CCOc1nc(F)cc2nc(S(=O)(=O)Nc3c(Cl)cccc3Cl)nn12 [Diclosulam] | 0.000639 | 0.000783 | 0.000711 | 0.00114 | 0.00086 | 0.000753 | 0.00112 | 0.000893
CS(=O)(=O)c1cc(C(F)(F)F)ccc1C(=O)c1cnoc1C1CC1 [Isoxaflutole] | 0.000764 | 0.000657 | 0.000649 | 0.000734 | 0.000767 | 0.000907 | 0.000852 | 0.000575
CC(Oc1ccc(Cl)cc1Cl)C(=O)O (centres undefined) [Dichlorprop] | 0.000488 | 0.000642 | 0.00104 | 0.000762 | 0.000968 | 0.000611 | 0.00124 | 0.000607

For convenience, some entries already given:
Compound | cell health score [1] | cell health score [2] | cell health score [3] | cell health score [4] | cell health score [5] | cell health score [6] | cell health score [7] | cell health score [8]
CCC(=O)Nc1ccc(Cl)c(Cl)c1 [Propanil] | 0.000577 | 0.0011 | 0.00105 | 0.001 | 0.000961 | 0.000549 | 0.00133 | 0.000987
COc1ccc(-c2ccc(=N)n(CCCC(=O)O)n2)cc1 | 0.00079 | 0.000835 | 0.000786 | 0.000953 | 0.00068 | 0.000622 | 0.000937 | 0.000496
